From PubChem BioAssay AID504444 (National Center for Advancing Translational Sciences (NCATS), 2011)
Screen size: about 360,000 compounds; about 7,500 (2.1%) were called active. Inconclusive means that the source gave no clear call. Such entries were picked first, then a sample of the others. The call rests on the fitted dose curve; in most records, active means well fitted inhibition curve with a large enough effect; inconclusive means small, poorly fitted or top-dose-only effect, or effect the other way; inactive means flat fitted curve, though single readings scatter. A potency beside an inconclusive call is a rough fit, not a confirmed value.

assay: Nrf2 qHTS screen for inhibitors; conditions: A549 ARE-Fluc reporter, luciferase luminescence, 18-24 h; activity change, negative = inhibition: at 46 µM (top of the series); further: nearly all actives have a fitted effect of over 60% in size
In short: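 Concentration-response testing used A549 ARE_Fluc cells at 5000 cells/well. Following an 18-24 h compound incubation, viability was read by fluorescence (Ex 405/Em 525) and luciferase output by luminescence.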
On the % scale 0 is the no-effect control and ±100 the full control effect; potency means the concentration at half of the fitted maximal effect.

SMILES	activity change, negative = inhibition	Potency
COc1ccccc1NC(=S)N/N=C1\CC(C)(C)Oc2ccc(O)cc21	inactive: 2.12%	
CCOc1ccc2[nH]c3c(N4CCN(C(=O)c5ccco5)CC4)ncnc3c2c1		inconclusive: 2.91 µM [falling, full curve]
Nc1ccc(C(=O)OCc2nc3cc4ccccc4cc3[nH]2)cc1		inconclusive: 23.1 µM [activator, partial curve]
N#CC1=C(N)Oc2n[nH]c(-c3cccs3)c2C1C1C=CCCC1 (stereo not drawn)		inconclusive: 25.9 µM [falling, partial curve, poor fit]
Cc1ccccc1C(=O)Nc1nnc(S(=O)(=O)N2CCc3ccccc32)s1		inconclusive: 23.1 µM [activator, single point]
Cc1cc(N(CCO)CCO)ccc1C(c1ccc(N(CCO)CCO)cc1C)c1ccccc1Cl	inactive: -15%	
CC(=O)c1ccc(N2CCN(C(=O)/C=C/c3ccc(S(=O)(=O)NCc4ccco4)cc3)CC2)cc1		inconclusive: 18.4 µM [falling, single point]
CSCCOC(=O)C1=C(C)NC(=O)NC1c1ccc2c(c1)OCO2 (stereo not drawn)	inactive: -13.4%	
NC(=S)NN=C1CCCC(C(F)(F)F)C1 (stereo not drawn)	inactive: 0.985%	
Cc1ccc(SCC(=O)Nc2ccc(N3CCN(C)CC3)c(F)c2)cc1		inconclusive: 16.4 µM [activator, single point]
CC(C)c1cc(NCCCN2CCOCC2)n2c(nc3ccccc32)c1C#N	inactive: 2.01%	
CCC(=NCCc1c(C)[nH]c2ccc(C)cc12)C1=C(O)CC(c2ccccc2)CC1=O (stereo not drawn)		inconclusive: 32.6 µM [falling, single point]
CCCOCC(O)CC(Cc1ccccc1)C(=O)NN (stereo not drawn)		inconclusive: 29.1 µM [falling, single point]
Cc1ccc(NCCC#N)cc1C		inconclusive: 7.31 µM [activator, partial curve, poor fit]
CCCCCn1c(CN2CCCCC2C)nc2c1c(=O)n(C)c(=O)n2C (stereo not drawn)		inconclusive: 0.146 µM [activator, full curve, poor fit]
COC(=O)c1c(-c2ccc(OC)cc2)sc2ccc(N3CCOCC3)cc12		inconclusive: 23.1 µM [activator, partial curve]
Cc1cc(C)cc(N2C(=O)CSC23C(=O)N(CC(=O)NC2CCCCC2)c2ccccc23)c1 (stereo not drawn)		inconclusive: 29.1 µM [falling, single point]
C/C=C/c1c(F)c(F)c(Oc2ccc(C(=O)O)cc2)c(F)c1F		inconclusive: 6.51 µM [falling, partial curve, poor fit]
CCN(CC)C(=O)CSc1nc2ccccc2c(=O)n1CCC(=O)NCCc1ccc(OC)c(OC)c1		inconclusive: 6.51 µM [activator, single point]
COc1cc(C(=O)OCc2cc(=O)n3ccsc3n2)ccc1OC(C)C		inconclusive: 4.11 µM [activator, single point]
COc1ccc(C(=O)Nc2cccc(OCc3cc(=O)n4c5c(sc4n3)CCCC5)c2)cc1OC	inactive: 12.7%	

SMILES	activity change, negative = inhibition	Potency
Cc1ccc(C2=NN(C(=O)c3cccs3)C(c3ccccc3O)C2)cc1 (stereo not drawn)		inconclusive: 29.1 µM [falling, partial curve, poor fit]
Cc1cc2ccccc2n1CCNC(=O)COc1ccc2ccccc2c1		inconclusive: 29.1 µM [falling, single point]
CCOc1ccc2nc(NC(=O)CSc3nc4ccccc4c(=O)n3Cc3ccco3)sc2c1		inconclusive: 9.2 µM [falling, partial curve]
CS(=O)(=O)N1N=C(c2cccs2)CC1c1ccco1 (stereo not drawn)		inconclusive: 16.4 µM [activator, partial curve]
COC(=O)c1c(C)[nH]c(O)c1C=Nc1ccc(Oc2ccccc2)cc1		inconclusive: 2.91 µM [falling, partial curve, poor fit]
O=C(/C=C/c1ccc([N+](=O)[O-])s1)N1CCCCC1	inactive: -1.87%	
CCCCCCCC(=O)N/N=C/c1ccc([N+](=O)[O-])o1		inconclusive: 25.9 µM [falling, single point]
Cc1ccc2cc(CCNC(=O)c3ccc4c(c3)OCO4)c(=O)[nH]c2c1		inconclusive: 29.1 µM [falling, single point]
CCOc1ccc2nc3cc(N=Nc4ccc(N)nc4N)ccc3c(N)c2c1		inconclusive: 18.4 µM [falling, single point]
Cc1ccc(S(=O)(=O)NCCNc2ccccc2[N+](=O)[O-])cc1	inactive: -12.4%	
CCOc1ccc(C(c2c(NC(=O)c3ccccc3)sc(C)c2C)N2CCN(C)CC2)cc1 (stereo not drawn)		inconclusive: 8.2 µM [falling, partial curve, poor fit]
Nc1nccc(NCCSCc2ccccc2)n1		inconclusive: 23.1 µM [falling, single point]
Cc1ccc(S(=O)(=O)N2C(=O)[C@@H]3Cc4ccccc4CN3C2=O)cc1		inconclusive: 2.59 µM [falling, partial curve, poor fit]
Clc1ccc(/C=C/c2ncc[nH]2)c(Cl)c1		inconclusive: 23.1 µM [activator, partial curve]
Cc1ccccc1Cn1nnc2c(=O)[nH]c(C3CCCN(C(=O)c4ccc(C(C)(C)C)cc4)C3)nc21 (stereo not drawn)		inconclusive: 18.4 µM [falling, single point]
COc1ccccc1NS(=O)(=O)c1cccc(C(=O)N/N=C/c2cn(-c3ccccc3)nc2-c2ccccc2)c1		inconclusive: 16.4 µM [falling, single point]
COc1ccc(OC)c(CCNC(=O)c2cnn(-c3ccccc3)c2-n2cccc2)c1		inconclusive: 16.4 µM [falling, single point]
CSc1ccccc1C(=O)Nc1nc2ccccc2[nH]1		inconclusive: 8.2 µM [activator, partial curve, poor fit]
CC1(C)CC(NCc2ccncc2)CC(C)(C)N1		inconclusive: 0.0046 µM [falling, full curve, poor fit]
O=C(c1ccc([N+](=O)[O-])cc1)n1nc(-c2ccccc2)nc1NCc1ccccc1		inconclusive: 29.1 µM [activator, single point]
O=C(CCS(=O)(=O)c1cc(Br)cc2c1N(C(=O)C1CC1)CC2)N1CCN(c2ccccc2)CC1	inactive: 1.32%	

An excerpt of these results, as a markdown table:

| SMILES | activity change, negative = inhibition | Potency |
| --- | --- | --- |
| Cc1ccc(SCC(=O)Nc2ccc(N3CCN(C)CC3)c(F)c2)cc1 |  | inconclusive: 16.4 µM [activator, single point] |
| CC(C)c1cc(NCCCN2CCOCC2)n2c(nc3ccccc32)c1C#N | inactive: 2.01% |  |
| CCC(=NCCc1c(C)[nH]c2ccc(C)cc12)C1=C(O)CC(c2ccccc2)CC1=O (stereo not drawn) |  | inconclusive: 32.6 µM [falling, single point] |
| CCCOCC(O)CC(Cc1ccccc1)C(=O)NN (stereo not drawn) |  | inconclusive: 29.1 µM [falling, single point] |
| Cc1ccc(NCCC#N)cc1C |  | inconclusive: 7.31 µM [activator, partial curve, poor fit] |
| CCCCCn1c(CN2CCCCC2C)nc2c1c(=O)n(C)c(=O)n2C (stereo not drawn) |  | inconclusive: 0.146 µM [activator, full curve, poor fit] |
| COC(=O)c1c(-c2ccc(OC)cc2)sc2ccc(N3CCOCC3)cc12 |  | inconclusive: 23.1 µM [activator, partial curve] |
| Cc1cc(C)cc(N2C(=O)CSC23C(=O)N(CC(=O)NC2CCCCC2)c2ccccc23)c1 (stereo not drawn) |  | inconclusive: 29.1 µM [falling, single point] |
| C/C=C/c1c(F)c(F)c(Oc2ccc(C(=O)O)cc2)c(F)c1F |  | inconclusive: 6.51 µM [falling, partial curve, poor fit] |
| CCN(CC)C(=O)CSc1nc2ccccc2c(=O)n1CCC(=O)NCCc1ccc(OC)c(OC)c1 |  | inconclusive: 6.51 µM [activator, single point] |
| COc1cc(C(=O)OCc2cc(=O)n3ccsc3n2)ccc1OC(C)C |  | inconclusive: 4.11 µM [activator, single point] |
| COc1ccc(C(=O)Nc2cccc(OCc3cc(=O)n4c5c(sc4n3)CCCC5)c2)cc1OC | inactive: 12.7% |  |
| Cc1ccc(C2=NN(C(=O)c3cccs3)C(c3ccccc3O)C2)cc1 (stereo not drawn) |  | inconclusive: 29.1 µM [falling, partial curve, poor fit] |

(further entries)

SMILES	activity change, negative = inhibition	Potency
Cc1ccc(C)c(OCCn2c(=O)c3c(ncn3C3CCCC3)n(Cc3ccccc3)c2=O)c1		inconclusive: 23.1 µM [falling, single point]
CC1=C(C(=O)OC(C)(C)C)C(c2ccco2)C(C#N)=C(N)O1 (stereo not drawn)	inactive: 1.27%	
CN(C)C(=O)CCc1ccc2c3c([nH]c2c1)[C@]1(CCC2CCCC2)[C@@H](C(=O)N2CCOCC2)C[C@H](CC(=O)NCCC2=CCCCC2)C(=O)N1CC3		inconclusive: 20.6 µM [falling, single point]
COc1ccc(S(=O)(=O)N2CCC(O)(c3ccc(Cl)cc3)CC2)cc1		inconclusive: 20.6 µM [falling, single point]
COc1cc(C(=O)Nc2ccccc2N2CCCCC2)cc(OC)c1OC		inconclusive: 32.6 µM [falling, single point]
CCC(C)(C)c1ccc(OCCCC[n+]2cccc(C)c2)c(C(C)(C)CC)c1		active: 8.2 µM
COc1cc(/C=N/NC(=O)c2cc(-c3cccn3C)n[nH]2)cc(OC)c1OC		inconclusive: 5.8 µM [falling, partial curve]
CCC(=O)C1CCCN(C(=O)CCc2nnc(-c3ccc(C(C)=O)s3)o2)C1 (stereo not drawn)		inconclusive: 1.46 µM [activator, full curve]
COc1ccc(S(=O)(=O)NCC2CCCN(Cc3ccccc3C)C2)cc1 (stereo not drawn)		inconclusive: 2.91 µM [falling, partial curve, poor fit]
Cc1c(C)c2ccc(OCC(=O)N3CCN(C(=O)C4COc5ccccc5O4)CC3)cc2oc1=O (stereo not drawn)		inconclusive: 25.9 µM [falling, single point]
CCC(CC)C(=O)N1N=C(c2ccc(NS(C)(=O)=O)cc2)CC1c1ccc(C)cc1 (stereo not drawn)		inconclusive: 23.1 µM [falling, single point]
C(=N\Nc1nc(Nc2ccccc2)nc(N2CCOCC2)n1)/c1c[nH]c2ccccc12		inconclusive: 16.4 µM [falling, partial curve, poor fit]
O=C(NCCc1ccccn1)c1ccc(OC(F)F)cc1		inconclusive: 0.651 µM [activator, full curve]
CCCn1c(=O)c(C(=O)NNC(=O)c2ccccc2Cl)c(O)c2ccccc21		inconclusive: 29.1 µM [falling, single point]
Cc1cccc(C)c1NC(=O)CSc1nnc(CCCCCNC(=O)OC(C)(C)C)o1		inconclusive: 7.31 µM [falling, partial curve, poor fit]
Cc1cccc(OCCSc2nc3c([nH]2)c(=N)ncn3Cc2ccccc2)c1		inconclusive: 18.4 µM [falling, single point]
O=C(Cn1cc(SCc2ccc(F)cc2)c2ccccc21)N1CCCCCC1		inconclusive: 29.1 µM [falling, single point]
CCOCCn1ccc2c(OCC(=O)Nc3ccc(OC)c(OC)c3)cccc2c1=O		active: 11.6 µM
O=C(c1ccc(-c2ccccc2Cl)s1)N1CCOCC1		inconclusive: 8.2 µM [activator, partial curve]
COc1cc(OC)cc(C(=O)Nc2ccccc2-c2nnn(CC(=O)Nc3cc(C)on3)n2)c1		inconclusive: 18.4 µM [falling, single point]
CCOCCCNC(=O)C1CCCN(c2ncnc3onc(C)c23)C1 (stereo not drawn)		inconclusive: 0.231 µM [falling, full curve, poor fit]
